Data published in PubChem BioAssay AID493014 (National Center for Advancing Translational Sciences (NCATS), 2011).
Hit rate of the full screen: of about 340,000 compounds, about 170 (0.05%) were called active. This list was built around the results that the source calls inconclusive (neither active nor inactive); the mix of calls is not that of the screen. The call rests on the fitted dose curve; in most records, active means well fitted inhibition curve with a large enough effect in the signal ratio, with a control signal flat (not every such curve was filed as active); inconclusive means small, poorly fitted or top-dose-only effect, or effect the other way, or a change in a side signal; inactive means flat fitted curve, though single readings scatter; the % refers to the signal ratio. Potencies of inconclusive entries are doubtful fits and often do not repeat.

assay: qHTS Assay to Find Inhibitors of Chronic Active B-Cell Receptor Signaling; settings: ABC-DLBCL IkBa-CBG/CBR reporter, luminescence ratio (green luciferase fused to IkBa over red control in TMD8 lymphoma cells), 4 h; activity change, negative = inhibition: at 46.1 µM (top of the series);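 on activity change, negative = inhibition: plate controls were basal doxycycline-induced cells for no effect and cells given 10 µM MG132 for full effect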
Procedure, shortened: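 Cell line TMD8 (human ABC DLBCL), stably expressing tet-inducible CBG68-IkBa fusion and CBR; IMDM/0.5% FBS; cpd up to 46 uM; dox induction, 4 h, 37C/5% CO2; dual luminescence; green/red ratio; MG132 control.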
Potency means the concentration at half of the fitted maximal effect.

Row | SMILES | activity change, negative = inhibition | Potency
1 | CCC1(CC)NC(=O)N(CC(=O)N2N=C(c3ccc(Cl)cc3)CC2c2ccco2)C1=O (stereo unspecified) | inconclusive: -18.7% | –
2 | CCc1ccc(Sc2cc(C(=O)NCc3ccccc3OC)c3ccccc3n2)cc1 | inconclusive: 4.61% | –
3 | Oc1nc(Nc2ccc(F)cc2)sc1/C=C1\C=Nc2ccccc21 | inconclusive: 17.8% | –
4 | Cc1cc(=O)n2[nH]c(SCc3ccccc3Cl)nc2n1 | – | inconclusive: 17.8 µM [falling, partial curve]
5 | O=C(CCl)Nc1cccc(S(=O)(=O)N2CCCCCC2)c1 | – | inconclusive: 14.6 µM [falling, partial curve]
6 | CCCCn1c(N)c(N(CC(C)C)C(=O)C2CC(=O)N(c3ccc(C)cc3)C2)c(=O)[nH]c1=O (stereo unspecified) | inconclusive: 3.71% | –
7 | O=C(CC(c1ccccc1)(c1ccccc1)c1ccccc1)N[C@@H](Cc1ccccc1)C(=O)O | inconclusive: -20.7% | –
8 | Cc1ccccc1Cn1c(CN2CCN(C(=O)c3ccco3)CC2)nc2c1c(=O)n(C)c(=O)n2C | inconclusive: 0.837% | –
9 | CC(Sc1nnc(N)s1)C(=O)Nc1ccc(N2CCOCC2)cc1 (stereo unspecified) | inconclusive: -9.28% | –
10 | COc1ccc(N2C(=O)CC(Sc3nc4c(cc3C#N)CCC4)C2=O)cc1 (stereo unspecified) | inactive | –
11 | c1ccc(SCc2nc(-c3ccccn3)no2)cc1 | – | inconclusive: 18.4 µM [falling, partial curve]
12 | CC(C)C[C@H](NC(=O)N1CCn2c1nc1ccccc12)C(=O)N[C@@H](C(=O)O)c1ccccc1 | inconclusive: 11.6% | –
13 | COC(=O)CNc1c(-c2ccccc2)nc2ccc(Br)cn12 | – | inconclusive: 20.6 µM [falling, partial curve]
14 | Cn1cnc2c1c(=O)n(Cc1ccc(Cl)cc1Cl)c(=O)n2C | inactive | –
15 | O=C(Nc1ccn(Cc2ccc(Cl)cc2)n1)c1ccccc1 | inactive | –
16 | CC(C)(C)c1ccc(C(=O)OCCNC(=O)c2c(Cl)nc3ccccn23)cc1 | – | inconclusive: 20.6 µM [falling, partial curve]
17 | CCN(c1ccccc1)S(=O)(=O)c1cc(C(=O)Nc2ccc(F)c(F)c2)ccc1F | inconclusive: 20.1% | –
18 | O=C(Nc1ccc(Br)cc1)c1ccc(F)c(S(=O)(=O)NCc2cccs2)c1 | inconclusive: 4.93% | –
19 | CCCCCNC(=O)c1cccnc1SCC(=O)Nc1ccccc1OC | inconclusive: -22.9% | –
20 | CC(=O)N1c2c(cc(Br)cc2S(=O)(=O)N2CCOCC2)CC1C (stereo unspecified) | inconclusive: 5.83% | –
21 | O=C(CSc1nnc(-c2ccccn2)o1)Nc1ccccc1C(F)(F)F | – | inconclusive: 28.2 µM [falling, single point]

Row | SMILES | activity change, negative = inhibition | Potency
22 | O=C(CCC(=O)Nc1ccccc1)NNC(=O)COc1ccccc1 | inconclusive: 4.88% | –
23 | CC(=O)Nc1cccc(C(=O)N2CCN(S(=O)(=O)Cc3ccccc3)CC2)c1 | inconclusive: -8.27% | –
24 | COc1ccc(-c2nn(-c3ccccc3)cc2N)cc1 | inactive | –
25 | COc1ccccc1N1CCN(C(=O)c2cccc(S(=O)(=O)N3CCCCCC3)c2)CC1 | inconclusive: 4.13% | –
26 | O=C(COC(=O)c1cccs1)Nc1ccccc1C(F)(F)F | – | inconclusive: 35.5 µM [falling, partial curve, poor fit]
27 | COc1nc(Nc2ccc([N+](=O)[O-])cc2)nc(NC(C)C)n1 | inconclusive: 13.1% | –
28 | COc1ccc2ccccc2c1CN1CCN(C(=O)c2ccccc2)CC1 | – | inconclusive: 20 µM [falling, partial curve, poor fit]
29 | N=c1sccn1CC(=O)Nc1ccc([N+](=O)[O-])cc1Cl | inconclusive: -3.28% | –
30 | Cc1ccc2c(CC(=O)Nc3sccc3C(N)=O)coc2c1 | – | inconclusive: 2.51 µM [falling, full curve, poor fit]
31 | O=C(CCSc1ccccc1)NNC(=O)c1ccccc1F | inactive | –
32 | O=C(Nc1nccs1)c1ccc(-c2ccc([N+](=O)[O-])cc2)o1 | – | inconclusive: 15.8 µM [falling, partial curve]
33 | CN[C@H]1CCc2cc(OC)c(OC)c(OC)c2-c2ccc(N(C)CC(OC)OC)c(=O)cc21 | inconclusive: -18.4% | –
34 | CC1CC(C)CN(CCCNC(=O)c2ccc3c(c2)ncn3C2CCCC2)C1 (stereo unspecified) | inconclusive: 4.94% | –
35 | O=C(Nc1nc(-c2cc(F)ccc2F)cs1)c1cccc(N2C(=O)CCC2=O)c1 | inconclusive: 13.1% | –
36 | Cc1ccc(CNC(=O)c2ccc3c(c2)nc(C)n3-c2cccc(F)c2)cc1 | inactive | –
37 | COc1ccc(/C=N\NC(=O)c2ccccc2Br)cc1COc1c(F)c(F)cc(F)c1F | – | inconclusive: 4.47 µM [falling, partial curve, poor fit]
38 | CCNc1nc(NC(C)C)nc(SCCOC(=O)c2ccccc2)n1 | inactive | –
39 | Cc1cc(N/N=C/c2c(O)ccc3ccccc23)nc(-c2ccccc2O)n1 | inconclusive: 5.26% | –
40 | Cc1cc(NC(=O)Nc2ccccc2F)ccc1Br | – | inconclusive: 17.8 µM [falling, single point]
41 | CCOc1ccc(NC(=O)CSC2=Nc3ccccc3C3=NC(CCC(=O)NCc4ccccc4)C(=O)N23)cc1 (stereo unspecified) | inactive | –
42 | Nc1ccc(C(=O)NC23CC4CC(CC(C4)C2)C3)cc1 | inactive | –

Row | SMILES | activity change, negative = inhibition | Potency
43 | O=C(N/N=C/c1cccc(NC(=O)c2ccc(Cl)cc2)c1)c1ccc(O)cc1 | – | inconclusive: 0.501 µM [falling, full curve]
44 | COc1ccc(-c2nc3cc(C)ccn3c2NCc2ccc3c(c2)OCO3)cc1 | inconclusive: -11.7% | –
45 | Cc1cccc(C(=O)Nc2ccc(NC(=O)CN3CCOCC3)cc2)c1 | inactive | –
46 | Nc1nc(N)nc(-c2cc(O)ccc2O)n1 | inconclusive: 0.0371% | –
47 | COc1ccccc1N1CCN(C(=O)CN2C(=O)c3ccccc3S2(=O)=O)CC1 | inconclusive: 8.98% | –
48 | COc1cc(C(=O)Nc2ccccc2N2CCOCC2)ccc1OCC(=O)N1CCOCC1 | inconclusive: 10.3% | –
49 | O=C(CSCc1ccccc1)NNC(=S)Nc1cccc(Cl)c1Cl | inconclusive: 8.52% | –
50 | COc1ccc(NC(=O)C23CCC(C)(C(=O)C2)C3(C)C)cc1 (stereo unspecified) | inconclusive: 4.86% | –
51 | Cc1cc(C(=O)N2CCN(c3ncccn3)CC2)c(C)o1 | inactive | –
52 | COc1ccc(CNCCSc2nnnn2C)cc1OC | inconclusive: 18% | –
53 | Cc1ccnc2c(N3C(=O)C4C5c6ccccc6C(c6ccccc65)C4C3=O)cccc12 (stereo unspecified) | inconclusive: 2.62% | –
54 | Cc1c(C(=O)OCCN2CCCCC2)oc2ccccc12 | inconclusive: 6.48% | –
55 | CC(C)C(=O)NC(c1ccc([N+](=O)[O-])cc1)c1c(O)ccc2ccccc12 (stereo unspecified) | inconclusive: 18.9% | –
56 | Cc1cccc(N)c1SC1CCCCC1O (stereo unspecified) | inconclusive: 14.7% | –
57 | NC(N)=NN=C1c2ccccc2-c2ccccc21 | inconclusive: -4.69% | –
58 | COc1ccccc1NC(=O)C(C)OC(=O)/C=C/c1ccc2ccccc2n1 (stereo unspecified) | inconclusive: -19.3% | –
59 | O=c1nccc(N/N=C/c2ccccc2O)[nH]1 | inconclusive: -17.3% | –
60 | CC(C)(C)n1nc2c(c1NC(=O)COc1ccc3ccccc3c1)CS(=O)C2 (stereo unspecified) | inconclusive: 1.99% | –
61 | COc1ccccc1N1CCN(C(=O)c2ccc3[nH]c4c(c3c2)CCCC4)CC1 | inconclusive: 13.9% | –
62 | O=C(NCc1ccccc1)c1cc(-c2cccs2)on1 | inconclusive: -14.6% | –
63 | COc1ccccc1Nc1cc(C(=O)NCCCN2CCOCC2)c2ccccc2n1 | – | inconclusive: 20 µM [falling, single point]

Row | SMILES | activity change, negative = inhibition | Potency
64 | O=C(C1CC1)N1N=C(c2ccc(F)cc2)CC1(O)C(F)(F)F (stereo unspecified) | inconclusive: 0.113% | –
65 | CCN(CCn1cccn1)C(=O)CC1C(=O)NCCN1Cc1ccc(OC)c(OC)c1 (stereo unspecified) | inconclusive: -1.08% | –
66 | COc1ccc(C(C)=O)c(Oc2cc(NN3CCCCC3)c([N+](=O)[O-])cc2[N+](=O)[O-])c1 | inactive | –
67 | CN(c1ccccc1)S(=O)(=O)c1cc(C(=O)Nc2nc3ccccc3[nH]2)ccc1Cl | inconclusive: 1.44% | –
68 | CC1=N/C(=C\c2ccc([N+](=O)[O-])cc2)C(=O)N1c1ccc(Cl)cc1 | – | inconclusive: 0.794 µM [falling, full curve, poor fit]
69 | CCCC(=O)Nc1ccc(-c2nc3ncccc3o2)cc1 | inconclusive: 7.75% | –
70 | O=C(/C=C\c1ccc2c(c1)OCO2)CC1(O)C(=O)Nc2ccccc21 (stereo unspecified) | – | inconclusive: 7.94 µM [falling, partial curve, poor fit]
71 | CC(C)CN1CCN(Cc2ccc(Oc3ncccn3)cc2)CC1CCO (stereo unspecified) | inactive | –
72 | O=C(CSc1nnnn1-c1ccccc1)Nc1ncc2c(n1)CC(c1ccccc1)CC2=O (stereo unspecified) | inconclusive: 9.85% | –
73 | CCc1ccc(C(=O)c2cn(CC(=O)Nc3cccc(OC)c3)c3ccc(OC)cc3c2=O)cc1 | – | inconclusive: 14.6 µM [rising, partial curve, poor fit]
74 | CCOC(=O)c1cnn2c(C)cc(-c3ccc(F)cc3)nc12 | inconclusive: -1.11% | –
75 | COc1ccccc1N1CCN(c2ncnc3c2cnn3-c2cc(Cl)ccc2C)CC1 | inconclusive: 2.12% | –
76 | COc1ccc(NC(=O)CSc2nc3[nH]c(=O)cc(O)c3s2)c(OC)c1 | inactive | –
77 | COc1ccc(OCC(=O)NCc2ccc3c(c2)CCN3C(=O)c2ccccc2)cc1 | inconclusive: -7.38% | –
78 | O=C(CCCNS(=O)(=O)c1ccccc1)NCc1ccco1 | inconclusive: -5.04% | –
79 | O=S(=O)(c1ccc(Br)s1)N1CCCCC1 | inconclusive: 2.45% | –
80 | CCOC(=O)c1c(COc2ccccc2)oc2ccc(O)cc12 | inconclusive: -1.77% | –
81 | CN(C)CCCN(C(=O)COc1ccccc1)c1nc2ccc(Cl)cc2s1 | inconclusive: 3.54% | –
